Measurements as given in US20160251440A1.
Substitutions are numbered along the chain they refer to. Results are given in words; binding and its absence hold for the method and conditions named. Some results given as binding are weak or reduced against the parent protein; the word gives no strength. Each block holds one binder with its values, some of them ahead of it.

How the values were obtained:
[1] = biological target: human IL12Rβ1, cell-expressed (human) (UniProt P42701); assay: FACS, activated T cells
[2] = biological target: human IL12Rβ1, cell-expressed (human) (UniProt P42701); assay: flow cytometry on activated human T cells, anti-FLAG detection
[3] = biological target: human IL-3Rα (CD123), cell-expressed (human) (UniProt P26951); assay: FACS, HEK293T-IL-3Rα cells
[4] = biological target: human IL-3Rα (CD123), cell-expressed (human) (UniProt P26951); assay: flow cytometry on THP-1 cells (CXCR4 and IL-3Ra)
[5] = biological target: human IL-3Rα (CD123), cell-expressed (human) (UniProt P26951); assay: flow cytometry on THP-1 cells, anti-FLAG detection
[6] = biological target: human IL-3Rα (CD123), cell-expressed (human) (UniProt P26951); assay: flow cytometry on MOLM-13 cells (IL-3Ra higher than CXCR4)
[7] = biological target: T1, recombinant IL-3Rα ectodomain (human) (UniProt P26951); assay: ELISA on recombinant IL-3Ra ectodomain (panel 'IL-3Ra ELISA', lower left)
T1 sequence (looked up): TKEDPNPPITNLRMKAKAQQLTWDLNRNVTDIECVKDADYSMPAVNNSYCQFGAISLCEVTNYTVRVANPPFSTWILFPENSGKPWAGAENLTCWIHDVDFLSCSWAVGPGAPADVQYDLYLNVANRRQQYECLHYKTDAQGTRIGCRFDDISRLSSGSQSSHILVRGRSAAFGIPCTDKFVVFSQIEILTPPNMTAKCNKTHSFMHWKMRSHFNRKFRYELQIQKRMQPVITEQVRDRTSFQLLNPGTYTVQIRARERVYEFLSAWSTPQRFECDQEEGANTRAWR

[8] = biological target: human IL-3Rα (CD123), cell-expressed (human) (UniProt P26951); assay: flow cytometry on HEK293 cells transfected with human IL-3Ra, anti-FLAG detection
[9] = biological target: human IL-3Rα (CD123), cell-expressed (human) (UniProt P26951); assay: flow cytometry at one concentration, 4.6 nM, on MOLM-13 cells (CXCR4+/CD123+), anti-FLAG detection
[10] = biological target: T1, recombinant IL-3Rα ectodomain (human); assay: ELISA on recombinant IL-3Ra ectodomain (lower right panel)
[11] = biological target: human CD4, cell-expressed (human) (UniProt P01730); assay: FACS, MOLM-13 cells
[12] = biological target: human CD4, cell-expressed (human) (UniProt P01730); assay: FACS, activated human T cells
[13] = biological target: human CD4, cell-expressed (human) (UniProt P01730); assay: flow cytometry on MOLM-13 cells (CD4, no IL12R or IL23R), upper left panel
[14] = biological target: human CD4, cell-expressed (human) (UniProt P01730); assay: flow cytometry on activated T cells of donor D838 (very high CD4, moderate IL12R), upper left panel
[15] = biological target: human CD4, cell-expressed (human) (UniProt P01730); assay: multi-colour FACS, TH1 activated T cells
[16] = biological target: human CD4, cell-expressed (human) (UniProt P01730); assay: multi-colour flow cytometry on TH1 activated T cells gated for CD4 or CD8, anti-flag-APC detection

binding [1]: binds | binding [2]: binds
B1: IL12Rb1#31: 148F09 (VHH)
VHH: EVQLVESGGGLVQTGGSLRLSCAASGRTPSIIAMGWFRQTPGKEREFVGEIILSKGFTYYADSVKGRFTISRANAKNTITMYLQMNSLKSEDTAVYYCAARQNWSGNPTRTNEYEYWGQGTLVTVSS

binding [11]: binds | binding [12]: binds | binding [15]: binds | binding [13]: binds | binding [14]: binds | binding [16]: binds
B5: IL12Rb2#1-35GS-CD4#8 (bispecific antibody)
chain: EVQLVESGGRLVQAGDSLRLSCAASGRTFISYRMGWFRQAPGKEREFVAALRWSSSNIDYTYYADSVKGRFSISGDYAKNTVYLQMNSLKAEDTAVYYCAASTRWGVMESDTEYTSWGQGTLVTVSSGGGGSGGGGSGGGGSGGGGSGGGGSGGGGSGGGGSEVQLVESGGGSVQPGGSLTLSCGTSGRTFNVMGWFRQAPGKEREFVAAVRWSSTGIYYTQYADSVKSRFTISRDNAKNTVYLEMNSLKPEDTAVYYCAADTYNSNPARWDGYDFRGQGTLVTVSS

binding [11]: binds | binding [12]: binds | binding [13]: binds | binding [14]: binds
B7: CD4#8-35GS-IL12Rb2#1 (bispecific antibody)
chain: EVQLVESGGGSVQPGGSLTLSCGTSGRTFNVMGWFRQAPGKEREFVAAVRWSSTGIYYTQYADSVKSRFTISRDNAKNTVYLEMNSLKPEDTAVYYCAADTYNSNPARWDGYDFRGQGTLVTVSSGGGGSGGGGSGGGGSGGGGSGGGGSGGGGSGGGGSEVQLVESGGRLVQAGDSLRLSCAASGRTFISYRMGWFRQAPGKEREFVAALRWSSSNIDYTYYADSVKGRFSISGDYAKNTVYLQMNSLKAEDTAVYYCAASTRWGVMESDTEYTSWGQGTLVTVSS

The remaining lines, values behind:

B2: 55A01 (VHH)
VHH: EVQLVESGGGSVQAGGSLRLSCTTSGRALNMYVMGWFRQAPGNEREFVAATSSSGGSTSYPDSVKGRFTISRDNAKNTVYLQMNSLKPEDTAAYRCAASPYVSTPTMNILEEYRYWGLGTQVTVSS
binding [3]: binds | binding [4]: binds | binding [5]: binds | binding [6]: binds | binding [7]: binds | binding [8]: binds | binding [9]: binds

B3: 57A07 (VHH)
VHH: EVQLVESGGGLVQAGGSLRLSCAASGSIFSGNVMGWYRRQAPGKEREWVAAIASGGSIYYRDSVKGRFTISRDNAKNTVYLQMNSLKPEDTAVYYCNSHPPTLPYWGLGTQVTVSS
binding [3]: binds | binding [5]: binds | binding [10]: binds | binding [8]: binds | binding [9]: binds

B4: IL12Rb2#2-35GS-CD4#8 (bispecific antibody)
chain: B5 chain with I30T, A49S, S56G
binding [11]: binds | binding [12]: binds | binding [13]: binds | binding [14]: binds

B6: CD4#8-35GS-IL12Rb2#2 (bispecific antibody)
chain: B7 chain with I190T, A209S, S216G
binding [11]: binds | binding [12]: binds | binding [13]: binds | binding [14]: binds
